Experimental data published in patent US20260034234A1 (AGENSYS, published 2026).
No constants are given. Whether binding was seen depends on the method and setting. Some entries that bind do so weakly or less than the wild type.

Sequences of proteins named here, by UniProt entry; tags and fusion partners are left off. A change or cut given only in a name is not applied to a line headed by its entry. A line that says so, or that is headed by a name, gives the form on record, which may keep a tag or linker.
Murine ortholog of 191P4D12, N90S mutant (on PC3 cells) (Q8R007, form named): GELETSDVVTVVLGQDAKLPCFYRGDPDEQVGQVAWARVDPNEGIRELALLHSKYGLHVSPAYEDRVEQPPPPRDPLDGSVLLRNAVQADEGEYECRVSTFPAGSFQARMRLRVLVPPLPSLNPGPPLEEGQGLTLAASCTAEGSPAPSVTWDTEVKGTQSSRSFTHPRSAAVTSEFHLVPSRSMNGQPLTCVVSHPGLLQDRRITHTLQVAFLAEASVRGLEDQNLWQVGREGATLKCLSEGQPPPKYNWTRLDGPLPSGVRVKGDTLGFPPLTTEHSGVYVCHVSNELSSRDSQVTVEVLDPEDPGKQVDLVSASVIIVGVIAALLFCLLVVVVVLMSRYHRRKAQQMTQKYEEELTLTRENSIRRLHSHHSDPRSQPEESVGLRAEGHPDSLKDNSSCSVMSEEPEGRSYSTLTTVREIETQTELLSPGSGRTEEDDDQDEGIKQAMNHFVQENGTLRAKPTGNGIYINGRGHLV

Key:
[1] = target: Cynomolgus 191P4D12 (on PC3 cells) (cynomolgus monkey); test: FACS on PC3 cells
[2] = target: Murine ortholog of 191P4D12, N90S mutant (on PC3 cells) (mouse) (UniProt Q8R007); test: FACS on PC3 cells expressing the mutant
[3] = target: Cynomolgus 191P4D12 (on PC3 cells) (cynomolgus monkey); test: FACS on PC3 cells expressing the ortholog
[4] = target: Cynomolgus 191P4D12 (on PC3 cells) (cynomolgus monkey); test: FACS titration on PC3 cells expressing the cynomolgus ortholog
[5] = target: Murine ortholog of 191P4D12, N90S mutant (on PC3 cells) (mouse) (UniProt Q8R007); test: FACS titration of Ha22-2(2,4)6.1 on PC3 cells expressing mouse 191P4D12 N90S

Measured: binding

B1: Ha22-2(2,4)6.1 MAb (antibody, human IgG1, kappa, V domains shown)
VH: EVQLVESGGGLVQPGGSLRLSCAASGFTFSSYNMNWVRQAPGKGLEWVSYISSSSSTIYYADSVKGRFTISRDNAKNSLSLQMNSLRDEDTAVYYCARAYYYGMDVWGQGTTVTVSS
VL: DIQMTQSPSSVSASVGDRVTITCRASQGISGWLAWYQQKPGKAPKFLIYAASTLQSGVPSRFSGSGSGTDFTLTISSLQPEDFATYYCQQANSFPPTFGGGTKVEIKR
notes: Fully human IgG1 kappa from XenoMouse; Used biotinylated in the Western blot; also called 191P4D12 MAb Ha22-2(2,4)6.1; Ha22-(2,4)6.1 MAb
binds: [1] | [2] | [3] | [4] | [5]
